{"source": "paper PMC8155045", "binders": {"B1": {"name": "EGFP-YB (protein, UniProt P25208 1-207)", "chain": "MTMDGDSSTTDASQLGISADYIGGSHYVIQPHDDTEDSMNDHEDTNGSKESFREQDIYLPIANVARIMKNAIPQTGKIAKDAKECVQECVSEFISFITSEASERCHQEKRKTINGEDILFAMSTLGFDSYVEPLKLYLQKFREAMKGEKGIGGAVTATDGLSEELTEEAFTNQLPAGLITTDGQQQNVMVYTTSYQQISGVQQIQFS"}}, "key": {"EGFP-YB": {"target": "EGFP-YB (UniProt P25208)", "experiment": "Number and Brightness (NB) analysis; apparent brightness of eGFP-tagged subunit in nuclei of live HeLa cells against monomeric eGFP and 5GFP controls, 37 degrees, 5% CO2"}, "mCherry-YB": {"target": "T1, mCherry-YB (UniProt P25208)", "T1 sequence": "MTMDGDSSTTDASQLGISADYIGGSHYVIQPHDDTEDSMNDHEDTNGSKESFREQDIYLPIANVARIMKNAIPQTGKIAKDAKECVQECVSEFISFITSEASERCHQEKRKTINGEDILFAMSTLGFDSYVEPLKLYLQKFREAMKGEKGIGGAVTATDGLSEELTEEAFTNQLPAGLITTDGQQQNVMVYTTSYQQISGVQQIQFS", "experiment": "FRET or BRET; FLIM-FRET (phasor analysis) in nuclei of live HeLa cells, eGFP donor and mCherry acceptor, all three NF-Y subunits transfected (third one untagged), 24 h after transfection, 37 degrees, 5% CO2"}}, "note": "Results are given in words; binding and its absence hold for the method and conditions named. For some assays here: In cells and extracts the contact can be indirect. Tags and fused reporters may be left off the sequences shown.", "data": [{"binder": "B1", "values": [{"measurement": "binding", "setting": "EGFP-YB", "result": "no binding"}, {"measurement": "binding", "setting": "mCherry-YB", "result": "no binding"}]}]}
